According to article PMC7415812:
No constants are given. Whether binding was seen depends on the method and setting. Binding seen in cells or lysates may run through a third protein. Here binding means that the protein was enriched with, or labelled near, the bait; the list need not be complete.

Sequences of proteins named here, by UniProt entry; tags and fusion partners are left off. Residues count along the entry.
UniProt O00206, residues 24-839: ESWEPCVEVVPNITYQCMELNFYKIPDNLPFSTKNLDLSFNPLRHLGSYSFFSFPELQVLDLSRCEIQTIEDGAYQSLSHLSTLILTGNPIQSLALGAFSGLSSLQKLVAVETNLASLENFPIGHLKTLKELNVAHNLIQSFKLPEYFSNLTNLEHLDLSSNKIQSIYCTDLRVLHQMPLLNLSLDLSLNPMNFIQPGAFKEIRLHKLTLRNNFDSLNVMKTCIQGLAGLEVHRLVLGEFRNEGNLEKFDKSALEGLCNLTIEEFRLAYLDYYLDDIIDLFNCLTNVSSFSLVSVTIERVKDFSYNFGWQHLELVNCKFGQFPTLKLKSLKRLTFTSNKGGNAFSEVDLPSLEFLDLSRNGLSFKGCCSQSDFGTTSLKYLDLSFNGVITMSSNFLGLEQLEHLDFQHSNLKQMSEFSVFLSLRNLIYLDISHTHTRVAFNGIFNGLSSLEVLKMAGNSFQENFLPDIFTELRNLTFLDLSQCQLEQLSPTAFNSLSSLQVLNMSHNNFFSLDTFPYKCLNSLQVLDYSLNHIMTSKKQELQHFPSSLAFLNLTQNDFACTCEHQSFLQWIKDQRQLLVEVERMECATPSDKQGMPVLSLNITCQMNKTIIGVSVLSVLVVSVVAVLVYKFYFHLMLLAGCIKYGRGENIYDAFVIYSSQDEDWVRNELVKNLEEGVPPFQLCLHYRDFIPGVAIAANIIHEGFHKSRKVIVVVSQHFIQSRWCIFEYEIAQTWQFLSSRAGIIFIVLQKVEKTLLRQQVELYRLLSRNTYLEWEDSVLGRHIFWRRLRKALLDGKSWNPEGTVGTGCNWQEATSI
UniProt Q13114: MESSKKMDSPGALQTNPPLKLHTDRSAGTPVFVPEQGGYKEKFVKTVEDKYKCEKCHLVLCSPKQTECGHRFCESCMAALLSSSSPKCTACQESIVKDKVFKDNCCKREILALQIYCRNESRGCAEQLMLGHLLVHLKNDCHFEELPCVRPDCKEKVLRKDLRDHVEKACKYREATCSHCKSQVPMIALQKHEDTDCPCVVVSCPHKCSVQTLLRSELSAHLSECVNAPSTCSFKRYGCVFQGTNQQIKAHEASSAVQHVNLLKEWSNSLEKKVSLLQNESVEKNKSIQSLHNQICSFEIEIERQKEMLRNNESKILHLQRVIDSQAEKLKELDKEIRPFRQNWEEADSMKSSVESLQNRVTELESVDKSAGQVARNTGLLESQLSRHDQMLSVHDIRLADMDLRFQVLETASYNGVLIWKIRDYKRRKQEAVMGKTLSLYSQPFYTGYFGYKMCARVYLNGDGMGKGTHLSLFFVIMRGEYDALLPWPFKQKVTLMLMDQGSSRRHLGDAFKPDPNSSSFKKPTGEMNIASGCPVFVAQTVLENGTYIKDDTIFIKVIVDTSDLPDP

Biological target: Flag-TLR4 (UniProt O00206)
Test: affinity purification with mass spectrometry; lysate of OVCAR-3 cells expressing Flag-TLR4 (50 mM Tris-HCl pH 7.4, 150 mM NaCl, 0.2 mM EDTA, 0.3% NP-40) on anti-FLAG beads overnight at 4 °C; eluted with Flag peptide; SDS-PAGE, silver staining; differential bands analysed by mass spectrometry

TNF receptor associated factor 3 (from UniProt Q13114 1-568)
binding: binds
